# Measured values taken from PubChem BioAssay AID504444 (National Center for Advancing Translational Sciences (NCATS), 2011).
# Among all 360,000 compounds or so, about 7,500 (2.1%) were called active. The shares of active, inactive and inconclusive entries below differ from those in the screen. Calls follow the shape of the dose curve; as a rule, active = well fitted inhibition curve with a large enough effect; inconclusive = small, poorly fitted or top-dose-only effect, or effect the other way; inactive = flat fitted curve, though single readings scatter. Potencies beside an inconclusive call are fits to weak or partial responses and may not hold up.
# Test: Nrf2 qHTS screen for inhibitors; also: nearly all actives have a fitted effect of over 60% in size
# Conditions: A549 ARE-Fluc reporter, luciferase luminescence, 18-24 h; activity change, negative = inhibition: at 46 µM (top of the series)
# Procedure, shortened: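 Reporter: ARE-Fluc in A549. Exposure: 18-24 h, 37 °C, 5% CO2, 5% FBS OPTI-MEM. Readouts: fluorescent cytotoxicity (CellTiter-Fluor), then luminescent Nrf2 signal after BugLite.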
# % is scaled to controls: 0 for no effect and ±100 for the full control effect; potency is read from the fitted curve at half-maximal effect.
SMILES,"activity change, negative = inhibition",Potency
Cn1c(SCc2ccc(C#N)cc2)nnc1-c1ccncc1,inactive: 5.39%,–
CCn1cc(C(=O)O)c(=O)c2cc(F)c(N3CCN(C(=S)NC(=O)c4cc(OC)cc(OC)c4)CC3)cc21,–,"inconclusive: 1.16 µM [falling, full curve]"
COc1ccc(C(=O)OCC(=O)c2c[nH]c3ccccc23)c(OC)c1,–,"inconclusive: 20.6 µM [activator, single point]"
CCOc1ccc(CCNC(=O)c2ccc(CS(=O)Cc3ccc(Cl)cc3)o2)cc1OCC (centres undefined),–,"inconclusive: 8.2 µM [falling, partial curve]"
CCCCC(=O)OCC(=O)C1(O)Cc2c(O)c3c(c(O)c2C(OC2CC(NC(=O)C(F)(F)F)C(O)C(C)O2)C1)C(=O)c1c(OC)cccc1C3=O (centres undefined),–,active: 9.2 µM
CC(NC(=O)CN1C(=O)NC2(CCCCCCC2)C1=O)c1ccccc1 (centres undefined),inactive: 16.8%,–
Cc1ccc(CNC(=O)c2oc3ccc(S(=O)(=O)N4CCC(C)CC4)cc3c2C)cc1,inactive: -9.12% [at 9.27 µM],–
NC(=S)N/N=C1\CCOc2ccc(Cl)cc21,–,"inconclusive: 8.2 µM [falling, partial curve]"
Cc1ccc(NS(=O)(=O)c2cccc(C(=O)NC3CCN(Cc4ccccc4)CC3)c2)c(C)c1,–,active: 20.6 µM
COc1ccc(C(C)=O)cc1CSc1nc2ccccc2c(=O)n1-c1ccccc1,–,"inconclusive: 20.6 µM [falling, single point]"
CC(C)c1cc(C(=O)Nc2cccc(C(F)(F)F)c2)no1,–,"inconclusive: 29.1 µM [activator, single point]"
O=C(CN1CCN(S(=O)(=O)c2ccccc2)CC1)NC(=O)NC1CCCCC1,–,"inconclusive: 18.4 µM [falling, partial curve, poor fit]"
Cc1ccc(S[C@@H](CCN2CC[C@H](C)CCC2=O)c2ccccc2)cc1,–,"inconclusive: 29.1 µM [falling, single point]"
CN(Cc1ccccc1)C(=O)c1ccc(NC(=O)Cc2cccc(NC(=O)C3CCN(C(=O)C4CCCCC4)CC3)c2)cc1,–,"inconclusive: 20.6 µM [falling, single point]"
N#C/C(C(=O)N1CCOCC1)=c1/s/c(=C\c2ccccn2)c(=O)n1-c1ccccc1,inactive: -9.34%,–
COc1ccccc1OCCNc1cc(N2CCCCC2)ccc1[N+](=O)[O-],–,"inconclusive: 2.31 µM [activator, partial curve, poor fit]"
COc1ccc(NC(=O)Cn2cnc3ccc(S(=O)(=O)N4CCC(C)CC4)cc3c2=O)cc1Cl,inactive: 0.326%,–
O=C(O)c1ccccc1-c1ccccc1C(=O)Nc1ccc(-c2nc3cc(Cl)ccc3o2)cc1,inactive: -0.889%,–
Cc1ccc(-n2ccnc(NCCc3ccc(S(N)(=O)=O)cc3)c2=O)c(C)c1,–,"inconclusive: 2.06 µM [falling, full curve, poor fit]"
O=C(COC(=O)c1cc(=O)[nH]c2ccccc12)Nc1nccs1,–,"inconclusive: 18.4 µM [falling, single point]"
Cc1nc2ccccc2c(=O)n1NC(=O)COc1ccccc1,–,"inconclusive: 9.2 µM [falling, partial curve, poor fit]"
Cc1noc(C)c1COC(=O)c1csc2c1CCCC2,–,"inconclusive: 20.6 µM [falling, partial curve, poor fit]"

SMILES,"activity change, negative = inhibition",Potency
COc1ccc(C(=O)O/N=C(\C)c2nccs2)cc1,–,"inconclusive: 7.31 µM [activator, partial curve, poor fit]"
CCCCc1ccc(NC(=O)COCC)cc1,–,"inconclusive: 5.17 µM [activator, partial curve, poor fit]"
CCOc1ccc(CC(=N)C2=C(O)CC(C)(C)CC2=O)cc1OCC,inactive: 6.42%,–
CCOC(=O)N1CCN(C(=O)CCn2c(=S)[nH]c3ccsc3c2=O)CC1,–,"inconclusive: 6.51 µM [falling, partial curve, poor fit]"
O=C(C1CCCO1)N1CCN(C(=S)Nc2ccc(Cl)c(Cl)c2)CC1 (centres undefined),inconclusive: 127% [activator],–
Cc1ccccc1Nc1nc(N)nc(CSc2nnc3sc4ccccc4n23)n1,–,"inconclusive: 16.4 µM [activator, single point]"
COc1ccc(N(CC(=O)NCCSCc2ccccc2C)S(=O)(=O)c2ccccc2)cc1,–,"inconclusive: 16.4 µM [falling, single point]"
CCC(=O)Nc1cccc(C2=NN(c3ccccc3)C(c3ccc(OC)cc3)C2)c1 (centres undefined),–,"inconclusive: 18.4 µM [falling, single point]"
CCOc1ccc(NC(=O)CC2C(=O)N(c3ccccc3)C(=O)N2Cc2ccco2)cc1 (centres undefined),inactive: 2.6%,–
C=CCN1C(=O)S/C(=C\c2ccc(N3CCOCC3)cc2C)C1=O,–,"inconclusive: 20.6 µM [activator, single point]"
Cc1ccc(-n2ncc(C(=O)N3CCN(Cc4ccccc4)CC3)c2C2CCN(C(=O)OC(C)(C)C)CC2)cc1,–,"inconclusive: 0.0058 µM [falling, full curve, poor fit]"
O=C(Cc1csc(Nc2nc(=S)[nH]c3ccccc23)n1)N1CCN(c2cccc(Cl)c2)CC1,–,"inconclusive: 5.8 µM [falling, partial curve, poor fit]"
O=Cc1ccc(N2N=C(c3ccccc3)CC2c2ccccc2)cc1 (centres undefined),–,"inconclusive: 10.3 µM [falling, partial curve, poor fit]"
CCc1nc(C)cc2c1sc1ccccc12,inactive: 13.3%,–
Cc1ccc(C(=O)Nc2ccc(Oc3cccc(C(F)(F)F)c3)nc2)cc1,–,"inconclusive: 3.66 µM [falling, full curve, poor fit]"
COc1ccc(NC(=O)c2cccc(S(=O)(=O)Nc3ccc(Br)cc3)c2)cn1,–,"inconclusive: 18.4 µM [falling, single point]"
O=C(Nc1cccc(-c2nc3ncccc3o2)c1)c1cc2ccccc2o1,–,"inconclusive: 23.1 µM [falling, single point]"
O=C(NCCc1c[nH]c2ccccc12)OCCCCOC(=O)NCCc1c[nH]c2ccccc12,–,"inconclusive: 29.1 µM [falling, single point]"
COC(=O)c1cn(NC(=O)c2cnccn2)c(=O)c2ccccc12,–,"inconclusive: 20.6 µM [falling, single point]"
Cc1cc(C)nc(N(C#N)C(C)C(=O)N(C)C)n1 (centres undefined),–,"inconclusive: 18.4 µM [falling, single point]"
COc1ccccc1OCCn1c(C(C)Oc2ccccc2)nc2ccccc21 (centres undefined),–,"inconclusive: 29.1 µM [falling, single point]"
Cc1cc(C)c(OCC(=O)Nc2nc(-c3ccccn3)cs2)c(C)c1,–,"inconclusive: 18.4 µM [falling, single point]"

SMILES,"activity change, negative = inhibition",Potency
Cc1ccc(C2N(C)c3ccccc3-c3nc4ccccc4n32)o1 (centres undefined),–,"inconclusive: 13 µM [falling, partial curve, poor fit]"
COc1ccccc1-c1nnc(SCC(N)=O)o1,–,"inconclusive: 13 µM [activator, partial curve]"
Cc1oc(-c2ccc(C(=O)NCc3ccc(F)cc3)cc2)nc1CS(=O)c1ccccc1 (centres undefined),–,"inconclusive: 10.3 µM [falling, partial curve]"
O=C1CSC(c2ccccc2)N1CC(O)c1ccc([N+](=O)[O-])cc1 (centres undefined),–,"inconclusive: 29.1 µM [falling, single point]"
CCCc1cc(=O)[nH]c(SCC(=O)c2cc(C)n(CC(F)(F)F)c2C)n1,inactive: -4.81%,–
Cc1ccc(S(=O)(=O)c2c(C)nn(C(C)(C)C)c2OC(=O)CC(C)C)cc1,–,"inconclusive: 14.6 µM [falling, partial curve]"
COCCn1c(-c2ccc(OC)cc2)cnc1SCC(=O)Nc1cccc2ccccc12,–,"inconclusive: 29.1 µM [falling, single point]"
CCOC(=O)Nc1c2ccccc2nc2ccccc12,inactive: -19.1%,–
O=C(COc1ccccc1F)N1CCN(S(=O)(=O)/C=C/c2ccccc2)CC1,inactive: 6.06%,–
Cc1cccc(NC(=O)CC2C(=O)NCCN2C(=O)Nc2ccc(Cl)cc2)c1 (centres undefined),–,"inconclusive: 32.6 µM [falling, single point]"
CCOc1ccc(CC(=O)Nc2ccc(NC(=O)c3ccco3)cc2)cc1OCC,–,"inconclusive: 1.84 µM [falling, full curve]"
Cc1ccc(/C=C/C(=O)Nc2cccnc2)o1,–,"inconclusive: 2.06 µM [activator, full curve]"
O=C(Nc1ccc(N2CCN(c3ccc(C(F)(F)F)cn3)CC2)nc1)c1cccs1,–,"inconclusive: 1.16 µM [falling, partial curve, poor fit]"
c1ccc(C2=Nc3ccccc3NC(c3ccccc3)C2)cc1 (centres undefined),–,"inconclusive: 29.1 µM [activator, single point]"
c1ccc(Oc2ccc(-c3ccn[nH]3)cc2)cc1,–,"inconclusive: 5.8 µM [activator, partial curve]"
O=C(O)C1=C[C@@H](c2ccc(Br)cc2)C[C@@H](OCc2ccc(CO)cc2)O1,inactive: -4.34%,–
COc1ccc(N2CCN(C(=O)COc3ccc(S(=O)(=O)N4CCOCC4)cc3C)CC2)cc1,–,"inconclusive: 14.6 µM [falling, single point]"
N=C1C(c2nc3ccccc3c(=O)[nH]2)=C(O)CN1CCc1ccccc1,–,"inconclusive: 14.6 µM [falling, partial curve, poor fit]"
CCc1ccccc1N1CCN(S(=O)(=O)c2ccc(F)c(C)c2)CC1,–,"inconclusive: 14.6 µM [falling, partial curve, poor fit]"
Cc1ccc(/C=N/NC(=O)c2n[nH]c3c2CCCC3)cc1,–,"inconclusive: 0.92 µM [activator, full curve]"

# Arranged by molecular weight (high to low): some entries from above
SMILES,"activity change, negative = inhibition",Potency
COc1ccc(N2CCN(C(=O)COc3ccc(S(=O)(=O)N4CCOCC4)cc3C)CC2)cc1,–,"inconclusive: 14.6 µM [falling, single point]"
Cc1oc(-c2ccc(C(=O)NCc3ccc(F)cc3)cc2)nc1CS(=O)c1ccccc1 (centres undefined),–,"inconclusive: 10.3 µM [falling, partial curve]"
COCCn1c(-c2ccc(OC)cc2)cnc1SCC(=O)Nc1cccc2ccccc12,–,"inconclusive: 29.1 µM [falling, single point]"
O=C(Nc1ccc(N2CCN(c3ccc(C(F)(F)F)cn3)CC2)nc1)c1cccs1,–,"inconclusive: 1.16 µM [falling, partial curve, poor fit]"
O=C(O)C1=C[C@@H](c2ccc(Br)cc2)C[C@@H](OCc2ccc(CO)cc2)O1,inactive: -4.34%,–
CCOc1ccc(CC(=O)Nc2ccc(NC(=O)c3ccco3)cc2)cc1OCC,–,"inconclusive: 1.84 µM [falling, full curve]"
O=C(COc1ccccc1F)N1CCN(S(=O)(=O)/C=C/c2ccccc2)CC1,inactive: 6.06%,–
Cc1cccc(NC(=O)CC2C(=O)NCCN2C(=O)Nc2ccc(Cl)cc2)c1 (centres undefined),–,"inconclusive: 32.6 µM [falling, single point]"
Cc1ccc(S(=O)(=O)c2c(C)nn(C(C)(C)C)c2OC(=O)CC(C)C)cc1,–,"inconclusive: 14.6 µM [falling, partial curve]"
COc1ccccc1OCCn1c(C(C)Oc2ccccc2)nc2ccccc21 (centres undefined),–,"inconclusive: 29.1 µM [falling, single point]"
CCCc1cc(=O)[nH]c(SCC(=O)c2cc(C)n(CC(F)(F)F)c2C)n1,inactive: -4.81%,–
CCc1ccccc1N1CCN(S(=O)(=O)c2ccc(F)c(C)c2)CC1,–,"inconclusive: 14.6 µM [falling, partial curve, poor fit]"
Cc1cc(C)c(OCC(=O)Nc2nc(-c3ccccn3)cs2)c(C)c1,–,"inconclusive: 18.4 µM [falling, single point]"
Cc1ccc(C2N(C)c3ccccc3-c3nc4ccccc4n32)o1 (centres undefined),–,"inconclusive: 13 µM [falling, partial curve, poor fit]"
Cc1ccc(/C=N/NC(=O)c2n[nH]c3c2CCCC3)cc1,–,"inconclusive: 0.92 µM [activator, full curve]"
CCOC(=O)Nc1c2ccccc2nc2ccccc12,inactive: -19.1%,–
COc1ccccc1-c1nnc(SCC(N)=O)o1,–,"inconclusive: 13 µM [activator, partial curve]"
Cc1cc(C)nc(N(C#N)C(C)C(=O)N(C)C)n1 (centres undefined),–,"inconclusive: 18.4 µM [falling, single point]"
c1ccc(Oc2ccc(-c3ccn[nH]3)cc2)cc1,–,"inconclusive: 5.8 µM [activator, partial curve]"
Cc1ccc(/C=C/C(=O)Nc2cccnc2)o1,–,"inconclusive: 2.06 µM [activator, full curve]"
